Experimental data taken from paper PMC12040169 (PLOS Biology, 2025).
The list shows a part of the results.

These molecules were tested on T1, CTL2-GFP (C. trachomatis L2/434/Bu, GFP-expressing). Conditions: bulk GFP, single well; 28.5 h, 10 µM; inhibitor.
T1 construct: L2/434/Bu, GFP-expressing
Parameters: species or system HeLa; Intracellular C. trachomatis growth in HeLa cells, bulk GFP fluorescence relative to DMSO

SMILES	% of control remaining [%]
O=C(Nc1nc2c(s1)CCCCC2)C1CN(S(=O)(=O)c2ccc(F)cc2)C1 [CBK286005]	78.8665
COc1ccccc1OCC(O)CN1CCN(C(=O)c2ccccc2)CC1 (stereo not shown) [CBK074386C]	124.456
COc1ccc(CC(=O)N2CCC(Cc3ccccc3-c3ccccc3)(C(N)=O)CC2)cc1 [CBK285911]	118.932
CCOC(=O)c1cnn(C2CCCN(Cc3c(C)n[nH]c3C)C2)c1 (stereo not shown) [CBK304059]	120.597
O=C(c1c(F)cccc1F)N1CCC(c2cc3cccnc3[nH]2)CC1 [CBK284997]	103.168
CCOC(=O)C1(C2CCCCC2)CCN(C(=O)CCSC)CC1 [CBK136929]	90.9528
NS(=O)(=O)c1ccc(NC(=O)CSc2nc3sc4c(c3c(=O)n2-c2ccc(Cl)cc2)CCCC4)cc1 [CBK267577]	100
O=C(NCC(CO)Cc1ccccn1)c1ccc2cc[nH]c2c1 (stereo not shown) [CBK305222]	121.534
CC1=C(C(=O)OCc2ccccc2)C2(C(=O)Nc3ccccc32)C(C(=O)OCc2ccccc2)=C(N)O1 (stereo not shown) [CBK262576]	100
CN1CC(CO)Oc2ccccc21 (stereo not shown) [CBK003872C]	121.935
Cc1cc(C)n(CCCNC(=O)Cn2cnc3sc(C)c(C)c3c2=O)n1 [CBK305852]	131.921
C=CCn1c2cc(C)sc2c2cnn(CC(=O)OCC)c(=O)c21 [CBK284165]	96.4842
CCc1ccc(OCC(=O)O/N=C(\N)c2ccncc2)c(Br)c1 [CBK265994]	98.1665
CCOc1cc(C(=S)N2CCN(C)CC2)ccc1OCC(=O)N1CCOCC1 [CBK266856]	77.4028
NS(=O)(=O)c1ccc(NC(=O)CN2CCC(Cc3ccccc3)CC2)cc1 [CBK266161]	147.318
O=C(Nc1ccc(O)c(-c2nc3ccccc3o2)c1)c1ccc(-c2ccc([N+](=O)[O-])cc2)o1 [CBK263439]	94.1797
CCOc1cc(OCC)cc(C(=O)Nc2ccc(-c3nc4ncccc4o3)cc2)c1 [CBK263440]	122.209
N#CCCCCn1cc(NC(=O)NCCc2cccs2)cn1 [CBK044855]	100.784
O=S(=O)(c1cccc2nonc12)N1CCCCCC1 [CBK265627]	100
CCN(CC)C(=O)Cn1nc(C)n2c(cc3ccsc32)c1=O [CBK284104]	100.574
CCOC(=O)c1cnn2c(O)cc(CN(Cc3ccco3)C3CC3)nc12 [CBK305613]	129.018
Cc1cc(CNCc2c(C(C)C)nn(C)c2N(C)C)no1 [CBK304855]	96.9415
CCCCNCC(=O)Nc1sc2c(c1C(=O)O)CCCC2 [CBK287207]	131.183
Cc1cc2oc(=O)cc(COC(=O)c3ccc(-n4cccn4)cc3)c2cc1Cl [CBK296626]	121.86
CCN1CCN(C(=O)CN(Cc2ccccc2)S(=O)(=O)c2c(C)cc(C)cc2C)CC1 [CBK266670]	106.822
CSCCN1CCC(Oc2nccnc2OC2CCCCC2)CC1 [CBK082873T]	113.902
COc1ccc(S(=O)(=O)N(C)CC(=O)Nc2cccc(C(F)(F)F)c2)cc1OC [CBK266242]	172.03

Molecules shown so far containing an aryl methoxy group (three):
SMILES	% of control remaining [%]
COc1ccccc1OCC(O)CN1CCN(C(=O)c2ccccc2)CC1 (stereo not shown) [CBK074386C]	124.456
COc1ccc(CC(=O)N2CCC(Cc3ccccc3-c3ccccc3)(C(N)=O)CC2)cc1 [CBK285911]	118.932
COc1ccc(S(=O)(=O)N(C)CC(=O)Nc2cccc(C(F)(F)F)c2)cc1OC [CBK266242]	172.03

(further entries)

SMILES	% of control remaining [%]
COc1ccccc1-c1nnc(SCC(=O)O)n1-c1ccccc1 [CBK116149]	131.484
C=C(C)Cn1c(SCC(C)C)nnc1-c1ccc(F)cc1 [CBK200085]	156.775
CNC(=O)C1(C)CCCN1C(=O)c1cc2cc(C)ccc2n1C (stereo not shown) [CBK281375]	145.068
O=C(c1cc2c(s1)CCC2)N1CCC[C@H]1[C@H](O)c1nccs1 [CBK284287]	101.679
O=C1Nc2ccc(-c3ccsc3)cc2C1(O)O [CBK000421]	130.364
CCNC(=O)N1C(CC(=O)Nc2cccc(OC)c2)C(=O)NC2CCCCC21 (stereo not shown) [CBK269848]	135.674
CCn1cc(-c2cncn2CCN(C)C2CCCC2)cn1 [CBK281551]	124.533
CCOC(=O)CN1CCN(S(=O)(=O)c2ccc3ccccc3c2)CC1 [CBK043738]	109.038
NC1=C(c2nc3ccccc3s2)C(=O)CN1CCN1CCOCC1 [CBK265946]	100
O=C(O)c1cccc(NC(=S)NC(=O)c2cccnc2)c1 [CBK265739]	131.572
CCOC(=O)N1CCCC(=O)c2c(C(=O)O)cn(C)c21 [CBK005301]	127.403
COC(=O)c1c(C)[nH]c(C(=O)CSc2ncnc3scc(-c4ccccc4)c23)c1C [CBK265918]	119.51
Cc1nn(-c2ccccc2)c(CN2C(=O)NC3(CCCC3)C2=O)c1C#N [CBK305572]	143.293
O=C1NC(=O)C(CCCCN2CCC3(CCN(C(=O)c4cc(F)c(F)cc4F)C3)C2)N1 (stereo not shown) [CBK132147]	129.9
Cc1ccc(S(=O)(=O)Nc2nc3ccc(S(=O)(=O)N4CCOCC4)cc3s2)cc1 [CBK266988]	161.216
CCOc1ccc(-c2ccnc(NCC(C)(C)CO)n2)cc1C(=O)O [CBK307530]	129.999
O=C(N[C@H]1CO[C@H]2[C@@H]1OC[C@@H]2n1nnnc1-c1ccccc1)c1ccccc1 [CBK289482]	103.596
COc1ccc(O)c(C(=O)c2cnn(-c3ccc(Cl)c(C(=O)O)c3)c2)c1 [CBK297914]	122.208
CN1C(=O)CC2(C1=O)C(=O)N(Cc1ccccc1)c1ccc(F)cc12 (stereo not shown) [CBK075163]	96.5288
CS(=O)(=O)Nc1cc(-c2noc([C@@H]3CCCN3Cc3ccncc3)n2)ccn1 [CBK288886]	121.215
O=C(Nc1ccccc1)c1cc2sccc2s1 [CBK057696]	59.9338
CCCc1cc(=O)oc2cc(OCC(=O)OC(C)C)c(Cl)cc12 [CBK264459]	133.322
COc1ccc(-c2nc(NC(=O)CSc3nnc(C)s3)ns2)cc1 [CBK267290]	137.512
CCN(c1ccc(NC(=O)Cn2nc(C(=O)O)c3ccccc3c2=O)cc1)C(C)C [CBK297734]	142.904
CCCC/C=C/c1cnc(N)c(-c2ccc(N3CCOCC3)cc2)n1 [CBK063891]	98.551
CC(C)(C)c1ccc(C(=O)NNC(=O)C(=O)Nc2ccccc2)cc1 [CBK261701]	118.545
Cc1c(C(=O)O)sc(S(=O)(=O)N2CCN(C(=O)CCC3CCCC3)CC2)c1C(=O)O [CBK297121]	126.205

SMILES	% of control remaining [%]
CCn1cc(Br)c(C(=O)Nc2nccs2)n1 [CBK265890]	109.985
CCOC(=O)N1CCC(NS(=O)(=O)c2cn(C)c(=O)n(C)c2=O)CC1 [CBK305699]	114.227
O=C(C1CCC1)N1CCC(n2nc(C3CC3)ccc2=O)CC1 [CBK284239]	107.715
C[C@H](NC(=O)N1CCN(C(=O)CCc2c[nH]c3ccccc23)CC1)C(=O)O [CBK286774]	106.385
O=C(NC1CCCC1)c1ccccc1Cl [CBK001992]	121.33
NS(=O)(=O)c1ccc(CNC(=O)c2ccccc2Nc2cccc(C(F)(F)F)c2)cc1 [CBK149579]	116.459
N#Cc1nccnc1NCc1ccccc1CN1CCCC1CO (stereo not shown) [CBK306418]	88.8225
CCN(CC)CCn1c(=N)n(CC(=O)OC)c2ccccc21 [CBK262517B]	100
O=C(O)Cn1c2ccccc2c2cc([N+](=O)[O-])ccc21 [CBK261732]	100
CCCn1nccc1S(=O)(=O)NCCN1CCCCC1CO (stereo not shown) [CBK307259]	116.998
NS(=O)(=O)c1cccc(NC(=O)c2cccnc2)c1 [CBK024417]	100
CC1=CC(C)C(CN(CCC[N+](C)(C)C)C(=O)Nc2ccccc2)C(C)C1 (stereo not shown) [CBK262507I]	100
COc1ccc(C(=O)Nc2ccccc2Nc2cc(-c3ccccc3)nn2-c2ccccc2)cc1 [CBK261296]	53.9377
COc1cc(-c2ccc3ccc(=O)[nH]c3n2)cc(OC)c1OC [CBK073721]	149.281
CC(C)C(NC(=O)c1cccc(-n2cnnc2)c1)c1cccs1 (stereo not shown) [CBK282442]	105.464
CCCCNCCOC1CCC[C@@H]1Cl (stereo partly shown) [CBK009839]	174.271
CC(=O)Nc1cccc(C(=O)NC2CC(=O)N(C3CCCCCC3)C2)c1 (stereo not shown) [CBK307455]	108.841
O=c1c2ccccc2nc2n1CCN(Cc1cccs1)CC2 [CBK284815]	131.819
COc1cccc2[nH]c(C(=O)N3CCOC(c4cccc(-c5c(F)cccc5F)n4)C3)cc12 (stereo not shown) [CBK285948]	77.9254
CCCCCn1c(-c2ccccc2)n[nH]c1=O [CBK013288]	135.623
Cc1nc2c(c(=O)[nH]1)CCN(Cc1cn(C(C)C)c3ccccc13)C2 [CBK283991]	114.195
CS(=O)(=O)Nc1cc2cccnc2c(-c2ccccc2)n1 [CBK061928]	124.095
Cn1c(=O)c2ncn(CC(=O)Nc3cccc(C(=O)O)c3)c2n(C)c1=O [CBK266838]	94.068
CC(Nc1cc(Cl)c(C(F)(F)F)cc1[N+](=O)[O-])c1ccc2[nH]c(=O)[nH]c2c1 (stereo not shown) [CBK297721]	118.47
COc1cc(CNc2cncc(-c3ccc4c(c3)OCO4)n2)cc(OC)c1OC [CBK065922]	161.642
